Results reported in PMC4571948.

B1: NubG-2HA-tagged CSPα (wild type) (protein, UniProt Q29455 1-198)
chain: MADQRQRSLSTSGESLYHVLGLDKNATSDDIKKSYRKLALKYHPDKNPDNPEAADKFKEINNAHAILTDATKRNIYDKYGSLGLYVAEQFGEENVNTYFVLSSWWAKALFIFCGLLTCCYCCCCLCCCFNCCCGKCKPKAPEGEETEFYVSPEDLEAQLQSDEREAADTPIVIQPASATETTQLTADSHPSYHTDGFN
B2: NubG-2HA-tagged SNAP23 (wild type) (protein, UniProt O09044 1-210)
chain: MDNLSPEEVQLRAHQVTDESLESTRRILGLAIESQDAGIKTITMLDEQGEQLNRIEEGMDQINKDMREAEKTLTELNKCCGLCICPCNRTKNFESGKNYKATWGDGGDNSPSNVVSKQPSRITNGQPQQTTGAASGGYIKRITNDAREDEMEENLTQVGSILGNLKNMALDMGNEIDAQNQQIQKITEKADTNKNRIDIANTRAKKLIDS
B3: NubG-2HA-tagged CLIP3 (wild type) (protein, UniProt Q96DZ5 1-547)
chain: MTKTDPAPMAPPPRGEEEEEEEEDEPVPEAPSPTQERRQKPVVHPSAPAPLPKDYAFTFFDPNDPACQEILFDPQTTIPELFAIVRQWVPQVQHKIDVIGNEILRRGCHVNDRDGLTDMTLLHYACKAGAHGVGDPAAAVRLSQQLLALGADVTLRSRWTNMNALHYAAYFDVPDLVRVLLKGARPRVVNSTCSDFNHGSALHIAASSLCLGAAKCLLEHGANPALRNRKGQVPAEVVPDPMDMSLDKAEAALVAKELRTLLEEAVPLSCALPKVTLPNYDNVPGNLMLSALGLRLGDRVLLDGQKTGTLRFCGTTEFASGQWVGVELDEPEGKNDGSVGGVRYFICPPKQGLFASVSKISKAVDAPPSSVTSTPRTPRMDFSRVTGKGRREHKGKKKTPSSPSLGSLQQRDGAKAEVGDQVLVAGQKQGIVRFYGKTDFAPGYWYGIELDQPTGKHDGSVFGVRYFTCPPRHGVFAPASRIQRIGGSTDSPGDSVGAKKVHQVTMTQPKRTFTTVRTPKDIASENSISRLLFCCWFPWMLRAEMQS

Molecular target: zDHHC13 ΔN truncation mutant, Cub-PLV bait (murine)
Test: two-hybrid; mating-based split ubiquitin system (SUS) in yeast: zDHHC-Cub-PLV baits, NubG-2HA-tagged preys; growth on synthetic defined medium (PLV-dependent activation of auxotrophy genes)

| Binder | binding |
| --- | --- |
| B1 | binds |
| B2 | binds |
| B3 | binds |

Molecular target: zDHHC17 ΔN truncation mutant, Cub-PLV bait (murine)
Test: as above

| Binder | binding |
| --- | --- |
| B1 | binds |
| B2 | binds |
| B3 | binds |

These are yes or no findings as the source states them, for the method shown. Binding can be weak; no strength is given. Tags and fused reporters may be left off the sequences shown.
